The exact form of at least one protein or probe is not confirmed. Protein sequences can lack the tags named with them.
Target: T1, SoxR (Streptomyces coelicolor) (UniProt Q9S255)
T1 sequence (looked up, limits assumed): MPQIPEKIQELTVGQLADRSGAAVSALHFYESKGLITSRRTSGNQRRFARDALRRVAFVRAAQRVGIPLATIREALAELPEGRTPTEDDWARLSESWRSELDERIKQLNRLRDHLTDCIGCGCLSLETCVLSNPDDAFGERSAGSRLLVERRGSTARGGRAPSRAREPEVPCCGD
Experiment: EMSA
Conditions: no binding at highest SoxR tested; EMSA: 10 mM Tris-HCl pH 8, 75 mM KCl, 0.1 mM DTT, 10% glycerol, 2 mM MgCl2, 0.1 ug poly(dI)-poly(dC), 2 mM dAMP, 30 uL, 6 fmol probe, SoxR 0-20 nM, 15 min 25 C; recombinant protein; protein details: His-tag; label: DIG end label; probe letters rebuilt from the primers and the genome

GTACGACGGTGGGCAAGTCACTGCTCCTGATGGGCGGCGAGTAGGCCCGCGCCGACCGGCGGCACCAAGGGATTGACAACACCGGAGCGTCAATCCTGATGATCTTGGTGTTGGTCCCGACCGGCCGGGCGATGCCATGCTGGGCCCCGCCCCACAGGCGTGCAGCGAGAG (double strand) [SCO0321 upstream probe]
Kd: > 20 nM
